This is a selection; strong and weak results do not stand in their true shares. At the low end of the ranking the order means little.
What was measured:
Assay in all cases: DAPPL (digital affinity profiling via proximity ligation, sequencing)
Conditions in all cases: 10 mM Tris-HCl pH 7.5, 50 mM NaCl, 1 mM DTT, 4% glycerol, room temperature, 30 min; GST-TFs on glutathione beads, 16-mer random dsDNA library, 0.1% …; high values mean tight binding; double strand, one strand shown; scale: fold enrichment (6-mer frequency, TF over GST control)
ELK1 = molecular target: T1, ELK1 (UniProt P19419)
T1 sequence: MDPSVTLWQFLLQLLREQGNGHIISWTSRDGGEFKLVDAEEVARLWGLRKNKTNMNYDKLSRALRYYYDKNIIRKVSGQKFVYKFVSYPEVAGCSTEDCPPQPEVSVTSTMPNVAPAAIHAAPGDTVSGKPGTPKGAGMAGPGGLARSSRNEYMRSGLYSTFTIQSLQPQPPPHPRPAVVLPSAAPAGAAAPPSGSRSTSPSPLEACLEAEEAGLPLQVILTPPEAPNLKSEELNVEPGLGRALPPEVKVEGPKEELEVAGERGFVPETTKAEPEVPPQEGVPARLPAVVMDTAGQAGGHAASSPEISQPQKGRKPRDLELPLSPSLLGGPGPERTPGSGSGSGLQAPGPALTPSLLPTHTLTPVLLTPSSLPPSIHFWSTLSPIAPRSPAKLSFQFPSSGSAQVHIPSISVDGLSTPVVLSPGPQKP

ELK3 = molecular target: T2, ELK3 (UniProt P41970)
T2 sequence: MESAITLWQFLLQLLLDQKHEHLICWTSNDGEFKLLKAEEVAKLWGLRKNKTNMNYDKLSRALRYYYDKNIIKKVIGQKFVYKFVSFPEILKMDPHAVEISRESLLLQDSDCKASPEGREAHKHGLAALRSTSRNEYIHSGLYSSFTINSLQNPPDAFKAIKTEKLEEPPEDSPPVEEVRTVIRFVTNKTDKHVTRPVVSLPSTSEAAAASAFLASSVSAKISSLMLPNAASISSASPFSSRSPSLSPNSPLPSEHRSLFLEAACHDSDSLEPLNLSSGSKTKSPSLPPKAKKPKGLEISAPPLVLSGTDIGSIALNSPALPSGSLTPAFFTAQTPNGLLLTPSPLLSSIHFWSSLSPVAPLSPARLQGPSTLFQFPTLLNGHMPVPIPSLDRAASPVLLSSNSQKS

SPIC = molecular target: T3, SPIC (UniProt Q8N5J4)
T3 sequence: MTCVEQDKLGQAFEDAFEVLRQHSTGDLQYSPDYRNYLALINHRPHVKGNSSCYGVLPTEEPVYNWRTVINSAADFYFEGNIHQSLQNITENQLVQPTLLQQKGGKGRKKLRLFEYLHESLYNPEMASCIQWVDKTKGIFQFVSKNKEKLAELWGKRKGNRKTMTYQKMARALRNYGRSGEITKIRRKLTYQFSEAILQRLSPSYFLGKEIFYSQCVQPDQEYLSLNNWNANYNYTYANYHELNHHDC

ETS2 = molecular target: T4, ETS2 (UniProt P15036)
T4 sequence: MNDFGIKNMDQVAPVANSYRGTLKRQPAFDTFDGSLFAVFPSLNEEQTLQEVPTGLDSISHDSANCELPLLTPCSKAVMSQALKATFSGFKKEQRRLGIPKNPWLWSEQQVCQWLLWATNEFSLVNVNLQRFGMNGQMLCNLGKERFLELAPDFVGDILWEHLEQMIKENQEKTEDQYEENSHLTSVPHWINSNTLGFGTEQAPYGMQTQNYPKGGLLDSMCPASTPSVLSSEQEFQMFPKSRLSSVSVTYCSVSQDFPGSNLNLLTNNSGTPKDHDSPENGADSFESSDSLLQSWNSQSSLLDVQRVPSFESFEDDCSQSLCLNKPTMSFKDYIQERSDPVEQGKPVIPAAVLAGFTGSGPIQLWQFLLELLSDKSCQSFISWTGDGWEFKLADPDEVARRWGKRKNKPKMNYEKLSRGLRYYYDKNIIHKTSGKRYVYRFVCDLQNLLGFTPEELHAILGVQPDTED

ETV3 = molecular target: T5, ETV3 (UniProt P41162-2)
T5 sequence: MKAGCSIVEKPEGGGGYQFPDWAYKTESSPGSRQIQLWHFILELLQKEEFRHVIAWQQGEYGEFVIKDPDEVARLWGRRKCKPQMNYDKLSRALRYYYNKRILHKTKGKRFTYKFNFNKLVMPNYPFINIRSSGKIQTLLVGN

Sequence | binding signal (ELK1) | binding signal (ELK3) | binding signal (SPIC) | binding signal (ETS2) | binding signal (ETV3)
CGTGTC | 0.813 | 0.805 | 0.801 | 0.76 | 0.834
AGATAG | 0.766 | 0.881 | 0.925 | 0.835 | 0.845
CGCGGG | 0.738 | 0.798 | 0.72 | 0.794 | 0.791
CGGGCA | 0.718 | 0.707 | 0.803 | 0.684 | 0.751
GCAGGG | 0.663 | 0.632 | 0.627 | 0.62 | 0.609
GTGAAA | 0.711 | 0.711 | 0.69 | 0.752 | 0.715
TGTAGG | 0.776 | 0.756 | 0.871 | 0.779 | 0.811
CGGGGC | 0.592 | 0.591 | 0.555 | 0.569 | 0.555
GTAAGT | 0.728 | 0.774 | 0.754 | 0.706 | 0.755
GACGTA | 0.762 | 0.834 | 0.746 | 0.739 | 0.728

— publication PMC7862700
